# Assay results reported in the supplement of paper PMC7824004.
# The other results are listed elsewhere or left out. The data scatter; read single values as rough.
# Test system: Candida albicans SN425
# Assay: biofilm OD600 B-score; higher = more biofilm (less inhibition)
# Details: 10 µM; assay detail: High-throughput adherence inhibition optical density biofilm assay with C. albicans SN425 in RPMI-1640/MOPS pH 7.0, 384-well plates. …
# Experimental: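 High-throughput adherence inhibition optical density biofilm assay with C. albicans SN425 in RPMI-1640/MOPS pH 7.0, 384-well plates. Compound (10 µM) was present only during the 90 min adherence step, then washed out, and the biofilm grew 24 h without compound. Biofilm was read as OD600 after removing the media. Scores are the difference from the mean in standard deviations and the plate B-score.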
row,Compound,biofilm OD600 B-score
1,COc1ccccc1CNC(=O)COc1cccc(C)c1C,1.61
2,CCCNC(=O)N1CCN(C(=O)NCCC)CC1,-0.0207
3,COc1ccc(S(=O)(=O)NC2CCCCCC2)cc1OC,0.678
4,Cc1nc(NC(=O)c2ccncc2)sc1C(=O)N(C)C,0.194
5,CS(=O)(=O)NCCC1=CCCCC1,-1.48
6,CC(C)(C)NS(=O)(=O)Nc1ccccc1,2.77
7,c1ccc2[nH]c(SCCN3CCCC3)nc2c1,-0.844
8,O=C(O)CCCNC(=O)c1ccccn1,-0.714
9,O=C(O)C1C2C=CC(O2)C1C(=O)Nc1ccc2c(c1)OCO2 (stereo not given),-2.41
10,COc1ccccc1CC(=O)N1CCN(c2ccccn2)CC1,-0.319
11,Nc1ccc(Sc2nc3ccccc3[nH]2)c(Cl)c1,-0.467
12,CC1CCCC(C)N1S(=O)(=O)c1ccc(N)cc1 (stereo not given),0.0201
13,O=C(NCc1ccco1)NC1CCCCC1,-1.33
14,COc1ccc2[nH]cc(CCNC(N)=O)c2c1,-1.15
15,NC(=O)Cn1cnc(-c2ccc(Cl)cc2)c1,0.931
16,COCC(C)NS(=O)(=O)c1ccc(NC(C)=O)cc1 (stereo not given),-0.267
17,CCCN1CCC(N2CCN(c3ccc(C(C)=O)cc3)CC2)CC1,-1.51
18,CS(=O)(=O)NC1CCN(Cc2ccccc2)CC1,-0.0985
19,CN(C)c1nc(N)nc(-c2ccco2)n1,-0.0619
20,O=C(Nc1cnc2ccccc2c1)N(c1ccccc1)c1ccccc1,0.732

# 2 entries drawn at random from the list so far:
row,Compound,biofilm OD600 B-score
9,O=C(O)C1C2C=CC(O2)C1C(=O)Nc1ccc2c(c1)OCO2 (stereo not given),-2.41
1,COc1ccccc1CNC(=O)COc1cccc(C)c1C,1.61

# Further records:

row,Compound,biofilm OD600 B-score
1,CC(C)NC(=O)c1ccccc1NC(=O)Nc1ccccc1,0.805
2,CCOc1ccc(CN(C)CCN(C)C)cc1,-3.7
3,Cc1ccc(C(NC(N)=O)c2ccccc2)cc1C (stereo not given),-1.91
4,CCOc1ccc(NS(=O)(=O)c2cc(C(=O)O)ccc2OC)cc1,-3.24
5,Cc1nc(-c2ccccc2)cc(N2CCCC2)n1,1.56
6,Nc1ccc(S(=O)(=O)NCCc2ccccc2)cc1,2.49
7,COCC(C)NC(=O)N1CCOCC1 (stereo not given),0.486
8,CCSc1nnc(NS(=O)(=O)c2ccc(OC)cc2)s1,0.267
9,CC(C)c1ccc(CN2CCOCC2)cc1,1.69
10,CC1=NCCN1S(=O)(=O)c1cc(C)c(Cl)cc1Cl,-0.394
11,Cc1cc(C)nc(NC(=O)c2ccc(F)cc2)n1,2.22
12,CCC(C(=O)NCc1ccco1)c1ccccc1 (stereo not given),-1.32
13,Oc1cnn(-c2ccccc2)c1,0.671
14,CCCN(CCO)Cc1ccc(F)c(F)c1,-0.72
15,Cc1cc(OCC(=O)NCc2ccccn2)ccc1Cl,-0.171
16,O=S(=O)(NCCCN1CCOCC1)c1ccc(I)cc1,0.124
17,COCC(C)NS(=O)(=O)c1ccc(OC)cc1 (stereo not given),-2.37
18,Cc1cccnc1NC(=O)C(C)Oc1cccc(Cl)c1 (stereo not given),0.955
19,CCOc1ccc(NS(=O)(=O)c2cc(Cl)ccc2OC)cc1,-0.168
20,Cc1cc(C)n(S(=O)(=O)/C=C/c2ccccc2)n1,3.91
